Measured values: publication PMC7794433, “Peptide signaling without feedback in signal production operates as a true quorum sensing communication system in Bacillus subtilis” (Communications Biology, 2021)

Experiment: ComX concentration in spent medium of ComX-overexpressing E. coli ED367
Parameters: species or system Escherichia coli

Sequence: ADPITRQWGD [ComX, isoprenylated (farnesylated) quorum sensing signal peptide of B. subtilis, HPLC purified from E. coli ED367]
- ComX concentration per optical density in E. coli spent media (E. coli ED367 overexpression): 200 nM a.u.^‒1
- ComX concentration in E. coli relative to B. subtilis (per optical density): about 20 times
